Reference: PubChem BioAssay AID602196 (INSERM, 2012)

Test: 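Knock-downs that protect lung cancer cells from cisplatin or sensitise them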
Cells: human A549 lung cancer cells
Knock-down reagent: siRNA pair against human genes
Timing: 48 h transfection before cisplatin; time from cisplatin to read-out not stated
Treatment: cisplatin at a dose killing half of control-siRNA cells; exact dose and duration not given
Measured: 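Cisplatin cell death as a shift from the 50% death seen with control siRNA; siRNAs toxic or growth-blocking alone scored 0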
Scale: two-siRNA summed score (-2 to +2): higher = both siRNAs protect from cisplatin killing; -2 means both sensitise; mean protection from cisplatin (shift in death) and protection from cisplatin (shift in death), siRNA C and protection from cisplatin (shift in death), siRNA D: higher = protection from cisplatin killing
Hit rule: 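siRNAs harmful alone (LDH or WST-1) get 0; others get +1 for less and -1 for more cisplatin killing; genes are active when the two siRNAs give the same sign, summing to ±2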
Meaning of the calls: active = both siRNAs shift cisplatin killing the same way; inactive = no consistent shift, or siRNA harmful alone
This is a random part of about 23,000 reagents. 455 of all reagents (2%) were called active. 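Active includes both protection and sensitisation; some change values fall well beyond the stated -50 to +50 range.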 Not given: the amount of reagent.

gene	two-siRNA summed score (-2 to +2)	mean protection from cisplatin (shift in death) (%)	protection from cisplatin (shift in death), siRNA C (%)	protection from cisplatin (shift in death), siRNA D (%)	activity call
LOC389742	0	37.3	9.6	65	inactive
ZNF66 (GeneID 7617)	1	11.7	7.9	15.5	inactive
DISP1 (GeneID 84976)	0	-5.8	-8.2	-3.5	inactive
KAT2B (GeneID 8850)	0	-2.9	-10.1	4.2	inactive
VAMP5 (GeneID 10791)	1	6.2	-5.8	18.1	inactive
MOSPD2 (GeneID 158747)	0	-3.5	-4.5	-2.4	inactive
IL18RAP (GeneID 8807)	-1	-14.2	-15.2	-13.2	inactive
USP26 (GeneID 83844)	0	-1.2	11.5	-13.9	inactive
LOC388657	0	11.5	9.9	13	inactive
NOL7 (GeneID 51406)	0	7.6	6.8	8.3	inactive
ICAM2 (GeneID 3384)	0	14.8	10.2	19.4	inactive

An excerpt of the results above, for reference:
gene	two-siRNA summed score (-2 to +2)	mean protection from cisplatin (shift in death) (%)	protection from cisplatin (shift in death), siRNA C (%)	protection from cisplatin (shift in death), siRNA D (%)	activity call
MOSPD2 (GeneID 158747)	0	-3.5	-4.5	-2.4	inactive
IL18RAP (GeneID 8807)	-1	-14.2	-15.2	-13.2	inactive

More results follow.
gene	two-siRNA summed score (-2 to +2)	mean protection from cisplatin (shift in death) (%)	protection from cisplatin (shift in death), siRNA C (%)	protection from cisplatin (shift in death), siRNA D (%)	activity call
DPAGT1 (GeneID 1798)	0	17	10.7	23.2	inactive
LOC374973	0	-0.9	-3.2	1.4	inactive
CHFR (GeneID 55743)	0	7.3	19.2	-4.5	inactive
C1QTNF2 (GeneID 114898)	0	3.9	0.4	7.4	inactive
WNK3 (GeneID 65267)	1	12.3	22.4	2.2	inactive
IL17D (GeneID 53342)	0	-7.4	7	-21.7	inactive
EML3 (GeneID 256364)	1	3	-4.2	10.2	inactive
CNTNAP5 (GeneID 129684)	2	23.8	33.4	14.2	active
CHRNB4 (GeneID 1143)	0	-7.8	-6.7	-8.8	inactive
TXLNB (GeneID 167838)	0	9	2	16.1	inactive
SFT2D3 (GeneID 84826)	0	7.3	15.9	-1.2	inactive
FGF9 (GeneID 2254)	0	9.5	12.8	6.1	inactive
